Values joined by “and” are separate entries in the source; they are usually repeats but may differ in a detail not shown here. Equal values may be shown once. Screen size: about 52,000 sequences; about 210 (0.4%) were called active.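 The calls were made as follows: active = gene whose silencing raises cell survival under the drug, median off-target-corrected z-score across its silencing RNAs 2 or more; inactive = the rest.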 The list shows a part of the results.

This experiment can be described thus: Resistance to Poly (ADP-Ribose) Polymerase inhibitor: Gene Identification via Genome-wide siRNA Screen. The note with it: mouse BRCA2 R2336H ES cells, olaparib, CellTiter-Glo viability; stronger effect = higher value. In a few lines:
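Genome-wide siRNA screen (3 siRNAs/gene, 20 nM) in mouse ES cells carrying hypomorphic BRCA2 R2336H; olaparib 500 nM added 48 h post-transfection, CellTiter-Glo viability 72 h later. Normalized to plate-median negative control; MAD z-scores, gene median, seed-adjusted.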
On to GGUCUUUGUGUCCACCUACTT against Grca, for which the z-score was inactive: -0.161.
On to GCUUCACAGAAGCUUUGUGTT against Ccl4, for which the z-score was inactive: -0.331.
As for GGCUUUGAGCCCGAAAAUCTT against Zfpm2, the z-score is inactive: -0.193.
For GGGAAGGAUAUCAUUGUGCTT against Olfr920, the z-score was inactive: 0.061.
As to GCCUUUCUACAGGUCUCUCTT against Asb18, the z-score is inactive: 0.335.
In the case of GGGUUGAUAGCAGAUAUCCTT against Cd52, the z-score is inactive: 0.174.
Take GCUAUAAAAUCUGCACAAGTT against Amy2: the z-score is inactive: -0.799.
On to GGCUCUUCUUAUGCACCCUTT against Pdyn, for which the z-score was inactive: 0.386.
As to GGAAAGAGCCAUCCUUUGATT against Gnmt, the z-score was inactive: -0.468.
As for CCACCAAUCCCAUCCAAAUTT against Sox2, the figure is inactive: -0.113; as for “GGGUGAGAUAGGAAAGUGGTT against 1810048P08Rik”, inactive: -0.244; as for GGGUUCAACACAUUCUCUGTT against V1re4, inactive: 0.714.
Regarding UUGGUUCAACUGCAUCGAATT against Olfr872, the z-score is inactive: 0.373.
Next, “GCCGGAAACUCAAGAUAGCTT against F830208F22Rik”: inactive: 1.32; “GCCAUCGCCAGGGAACAAATT against 9230105E10Rik”: inactive: -0.808; GCAUCCUGUGAGGUCUAUCTT against Zfp316: inactive: 0.278.
Next, CCGGAACUAUCAAUAAAUGTT against Gbl: inactive: -1.06; “CCAGUUGAGUCACUUACUGTT against 2010012O05Rik”: inactive: -0.382.
On to CCUGAUUGUCUUCAAUGGGTT against Cant1, for which the z-score was inactive: 1.63.
Consider GGAGCAAGGCUACAUUUUUTT against Itih3, for which the z-score was inactive: -0.555.
Next, “CCCAAAAAGUUCAAACAAGTT against 1810015C04Rik”: inactive: 2.24.
As for CCAUAUUUAAGUCCCUGUCTT against Pim1, the figure is inactive: -0.129.
For AACUCCCUCCCUGUUGUAGTT against A4galt, the z-score was inactive: -0.425.
Next, GGAAAAUUGGGAAAAUGUGTT against Sell: inactive: -1.6; GGAUUCGUAGUGGCUUCAGTT against Prss25: inactive: -1.48.
Next, GGCUUGGUAUGAUGCGCACTT against Rbm12: inactive: 0.366; GCACCAAGUAUAGGAUUAATT against Grit: inactive: 0.792.
As for “GGUGCUAAAUUAUCCCUAUTT against C330046G03Rik”, the figure is inactive: -0.271; as for “GCUGGUGCUCUUCACCAUATT against 1110064L07Rik”, inactive: 0.444.
Consider GGAAGAUACUAAUAGAGUATT against Enpep, for which the z-score is inactive: 0.831.
For the sequence “CCUUGUACCCAGUAAAGUCTT against 2310007B03Rik”, the z-score is inactive: -2.34.
As for “CUCCCUGGCAUUAAUCCGUTT against 1700055M20Rik”, the figure is inactive: -0.728; as for “GGAACAAAAAGAAAAGGACTT against 4933424A10Rik”, inactive: 1.3.
As for GGAGAAAGCCUUCCUUAGUTT against Trpc5, the figure is inactive: -0.503.
As for GCAACUCUUGGUUUCCUGUTT against BC017647, the figure is inactive: 0.57.
Consider GCUAGAUGCUACGAGAUUGTT against Tipin, for which the z-score is inactive: 0.231.
Next, GGCUUCCUAUCUGAUUACUTT against Acsl4: inactive: -0.0779; GGUGGACAUGCUGAAGUUGTT against Naga: inactive: -0.456.
As for “GGAUGUGAAUGAGUGUGAGTT against 1600015H20Rik”, the figure is inactive: -1.07.
Next, “GGCAAAAUAGAGAAAUACATT against D15Ertd366e”: inactive: -0.997.
In the case of “CGUGAGGUUUGGAGGGUCATT against 3010033P07Rik”, the z-score was inactive: -3.06.
Next, CCGGUAUUACAACAAGUACTT against Atp5j2: inactive: -1.25.
Next, GCUAUACGUACAAUGGCAATT against Prrg2: inactive: 1.43; CGGAAUGUAGGACACGAAUTT against Ltb: inactive: 0.436; GGAACAUCACAGAAGCUACTT against Olfr141: inactive: -1.
As for GCAUACCUAGACUGAAAACTT against BC003324, the figure is inactive: 0.503; as for GCCAGUGUUCGUGCCUGAUTT against C85492, inactive: -2.67; as for CCAAAUCUCUCAAUUUAGGTT against BC066223, inactive: -0.235 and inactive: 0.517.
On to CCACUACUUUCCUACAAAUTT against Stard8, for which the z-score was inactive: 0.45.
Next, GGCUCAGUGAGUUUCAGAATT against Snx25: inactive: 0.423; “GAUCUCAAACAUUCUAUGCTT against 1110014K05Rik”: inactive: 0.747; “GGAAAUGCUCCUCUAGGAUTT against 6330579B17Rik”: inactive: 0.927.
For UAUCGUCCACAACUACUCATT against Epn1, the z-score is inactive: 0.642.
As for GCUCAUUGGAUGUUGCUGATT against Elf1, the figure is inactive: 0.564; as for GCAUGUGAUGCUACGUAUATT against Fmr1, inactive: 0.242; as for “GGAUCUUCGUGUCCAUUUATT against E130120L08Rik”, inactive: 0.321.
On to GGUGGACACAUAUAGUCCCTT against Col27a1, for which the z-score was inactive: 0.988.
As for GCCAUUCUAGGAACUCUGATT against Thrap3, the z-score is inactive: -0.935.
As for “GCGGUCAUGACAAGUCACUTT against A530087D17Rik”, the figure is inactive: 0.223; as for CCAGUGAUUAAUGUGACCUTT against LOC210321, inactive: 0.847.
Next, GGAUUUUGUUGACAAUGAUTT against Brrn1: inactive: -1.34; GGACUGUGACAAAGCCUAUTT against Klk1: inactive: 0.534.
As for “UCAGGUCGCUGCUAAACUCTT against 4933434G05Rik”, the figure is inactive: -0.284.
Take GGGAAUAUCACAGGUGCCATT against Axl: the z-score was inactive: -0.069.
As for GCCCGGAGAACAUGAUUAUTT against Tead4, the figure is inactive: 0.904; as for “GGAACCUCACAUCCAGUGATT against 9130218O11Rik”, inactive: 1.02.

Values taken from PubChem BioAssay AID1347423 (Functional Genomics Laboratory (NCATS/FGL), 2020).
